Data: US11873291B2, “Quinoline cGAS antagonist compounds” (ImmuneSensor Therapeutics, Inc., priority 2020, dated 2024)
Like-named read-outs stand apart in the source and are kept apart here. The structures given here were assigned with low confidence; some may be wrong.

The chains behind the UniProt entries cited, without tags or fusion partners. Residues count along the entry.
UniProt Q8N884, 147-522 limits assumed: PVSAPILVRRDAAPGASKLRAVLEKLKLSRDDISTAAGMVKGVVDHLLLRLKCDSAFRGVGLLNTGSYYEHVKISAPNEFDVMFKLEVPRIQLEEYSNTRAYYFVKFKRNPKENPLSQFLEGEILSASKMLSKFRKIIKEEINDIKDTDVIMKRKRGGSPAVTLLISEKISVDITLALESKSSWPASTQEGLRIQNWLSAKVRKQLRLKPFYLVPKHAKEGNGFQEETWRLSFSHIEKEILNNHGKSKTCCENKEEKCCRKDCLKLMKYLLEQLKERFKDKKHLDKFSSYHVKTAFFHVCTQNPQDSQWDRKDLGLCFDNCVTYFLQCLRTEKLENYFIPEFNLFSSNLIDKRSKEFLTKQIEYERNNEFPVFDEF

Experiments:
[1] = target: recombinant human cGAS (aa147-522) (Homo sapiens, UniProt Q8N884); assay: In vitro inhibition assay of cGAS activity (ATP consumption, KinaseGlo Max); format: biochemical
Procedure: Expression and Purification of Recombinant cGAS Protein: cDNA encoding full-length or amino acids […] of human cGAS was inserted into a modified pET28a vector containing an in-frame His6-SUMO tag. The E. coli strain BL21/pLys harboring the plasmid was induced with 0.5 mM IPTG at 18° C. overnight. His6-SUMO tag was removed by a SUMO protease digestion following purification of the His6-SUMO-cGAS as described previously (Sun et al, 2013, Science 339, 786).
In vitro inhibition assay of cGAS activity: A 60 μL mixture containing 20 mM Tris-Cl, pH 7.5, 5 mM MgCl2, 0.2 mg/mL BSA, 0.01 mg/mL Herring testis DNA, 6.6 μM ATP, 0.1 mM GTP, 1.5 μg/mL of recombinant human cGAS (aa147-522) and serial dilutions of a test compound in DMSO was added to a 96-well plate and incubated at 37° C. for 20 minutes. At the end of reaction, 40 μL of KinaseGlo Max (Promega) was added and chemiluminescence was measured with a luminometer. Inhibitory effect of a compound is evaluated by plotting percentage of ATP consumption against logarithm of compound concentrations. IC50 value was calculated using GraphPad Prism 8 (GraphPad Software, Inc.).
The letter codes for cGAS IC50 include: A (<2 μM); B (2-30 μM); C (>30 μM).

[2] = system: cGAS activity in Reporter THP1 cell line; assay: Cellular assay to measure cGAS activity: ISRE-Gaussia luciferase reporter THP1 cells transfected with ISD
Procedure: Cellular assay to measure cGAS activity: Reporter THP1 cell line harboring a gene encoding Gaussia Luciferase under the control of 5 tandem repeats of interferon-stimulated response elements (ISRE) fused to an ISG54 minimal promoter was used to test inhibition of cGAS activity by synthetic compounds in human cells. These cells were plated on 96-well plates at 0.3×10^6/well and incubated with serial dilutions of compounds or DMSO for 5 min, followed by transfection of 2 μg/mL of ISD (Interferon Stimulatory DNA, a 45 bp DNA oligo) or mock transfected using lipofectamine 2000 (Life Technology) method, according to manufacturer's instructions. 16 hours later, 15 μL of the media from each well was transferred to a new plate, 50 μL of solution containing 50 mM Hepes-NaOH, pH 6.5, 50 mM NaCl, 10 mM EDTA, 1 μM of coelenterazine was added to each well and luminescence was measured immediately. Fold increase in luminescence compared to mock transfection was plotted against concentrations of each compound, and IC50 is calculated using Graphpad. To evaluate the specificity of a compound, the same procedure was performed except that cells were transfected with 2 μg/mL poly(I:C) or infected with Sendai Virus (SeV) at 50 Unit/mL, which are known to activate the RIG-I-MAVS pathway. […]

[3] = read-out: cGAS Inhibition Results IC50, Table 3
[4] = read-out: cGAS Inhibition Results IC50, Table 2

SMILES	IC50 [1, 3] [µM]	IC50 ([2]; read-out: Cellular Assay Results IC50, untitled table after Table 4 (continuation)) [µM]	IC50 [1, 4] [µM]	IC50 ([2]; read-out: Cellular Assay Results IC50, Table 4, Gaussia luciferase) [µM]
O=C(O)CCOC[C@@H]1C[C@@H]2C[C@@H]2N1c1cc(-n2ccnc2)c2ccc(Cl)c(Cl)c2n1 [I-707]	< 2	< 2	–	–
NC(=O)CNc1cc(-n2ccnc2)c2ccc(Cl)c(Cl)c2n1	–	–	2 to 30	–
O=C(O)CNc1cc(Cl)nc2c(Cl)cc(Cl)cc12	–	–	> 30	–
COC(=O)[C@@H]1[C@H]2C[C@H]2CN1c1cc(-n2ccnc2)c2ccc(Cl)c(Cl)c2n1	2 to 30	–	–	2 to 10
O=C(O)CO[C@H]1C[C@@H](C(=O)O)N(c2cc(-n3ccnc3)c3ccc(Cl)c(Cl)c3n2)C1	< 2	–	–	–
